Data reported in the supplement of paper PMC10849652.
This is one part of the list. Residues, ends and D or L forms follow the SMILES beside them. *: point of attachment. Cbz = O=C(OCc1ccccc1)*

Amino acid sequences for entries named in this document (tags omitted). A change or cut given only in a name is not applied to a line headed by its entry.
UniProt Q96G21: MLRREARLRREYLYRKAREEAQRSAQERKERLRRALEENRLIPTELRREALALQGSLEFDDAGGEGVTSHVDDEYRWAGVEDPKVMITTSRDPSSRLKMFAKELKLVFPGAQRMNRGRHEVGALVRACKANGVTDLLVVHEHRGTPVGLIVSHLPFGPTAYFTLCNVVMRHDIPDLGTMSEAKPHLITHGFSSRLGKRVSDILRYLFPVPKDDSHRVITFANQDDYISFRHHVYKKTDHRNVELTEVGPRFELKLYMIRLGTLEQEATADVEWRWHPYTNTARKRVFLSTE
UniProt Q9Y573: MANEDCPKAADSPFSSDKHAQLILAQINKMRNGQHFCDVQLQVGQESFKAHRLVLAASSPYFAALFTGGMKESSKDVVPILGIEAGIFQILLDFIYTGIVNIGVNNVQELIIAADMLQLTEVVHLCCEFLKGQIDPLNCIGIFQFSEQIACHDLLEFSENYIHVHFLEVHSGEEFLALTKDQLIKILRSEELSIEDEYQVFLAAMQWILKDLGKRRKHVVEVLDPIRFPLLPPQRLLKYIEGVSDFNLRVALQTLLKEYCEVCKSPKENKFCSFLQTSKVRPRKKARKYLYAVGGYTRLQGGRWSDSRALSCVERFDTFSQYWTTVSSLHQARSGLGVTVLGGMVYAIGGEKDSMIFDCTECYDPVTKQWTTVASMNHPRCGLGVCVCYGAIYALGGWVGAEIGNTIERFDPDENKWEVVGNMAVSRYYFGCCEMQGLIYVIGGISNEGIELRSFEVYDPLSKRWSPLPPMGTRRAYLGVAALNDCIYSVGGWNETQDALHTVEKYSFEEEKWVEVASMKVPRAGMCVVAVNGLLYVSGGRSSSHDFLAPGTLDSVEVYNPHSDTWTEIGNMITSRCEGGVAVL
UniProt Q14573, whole entry, looked up: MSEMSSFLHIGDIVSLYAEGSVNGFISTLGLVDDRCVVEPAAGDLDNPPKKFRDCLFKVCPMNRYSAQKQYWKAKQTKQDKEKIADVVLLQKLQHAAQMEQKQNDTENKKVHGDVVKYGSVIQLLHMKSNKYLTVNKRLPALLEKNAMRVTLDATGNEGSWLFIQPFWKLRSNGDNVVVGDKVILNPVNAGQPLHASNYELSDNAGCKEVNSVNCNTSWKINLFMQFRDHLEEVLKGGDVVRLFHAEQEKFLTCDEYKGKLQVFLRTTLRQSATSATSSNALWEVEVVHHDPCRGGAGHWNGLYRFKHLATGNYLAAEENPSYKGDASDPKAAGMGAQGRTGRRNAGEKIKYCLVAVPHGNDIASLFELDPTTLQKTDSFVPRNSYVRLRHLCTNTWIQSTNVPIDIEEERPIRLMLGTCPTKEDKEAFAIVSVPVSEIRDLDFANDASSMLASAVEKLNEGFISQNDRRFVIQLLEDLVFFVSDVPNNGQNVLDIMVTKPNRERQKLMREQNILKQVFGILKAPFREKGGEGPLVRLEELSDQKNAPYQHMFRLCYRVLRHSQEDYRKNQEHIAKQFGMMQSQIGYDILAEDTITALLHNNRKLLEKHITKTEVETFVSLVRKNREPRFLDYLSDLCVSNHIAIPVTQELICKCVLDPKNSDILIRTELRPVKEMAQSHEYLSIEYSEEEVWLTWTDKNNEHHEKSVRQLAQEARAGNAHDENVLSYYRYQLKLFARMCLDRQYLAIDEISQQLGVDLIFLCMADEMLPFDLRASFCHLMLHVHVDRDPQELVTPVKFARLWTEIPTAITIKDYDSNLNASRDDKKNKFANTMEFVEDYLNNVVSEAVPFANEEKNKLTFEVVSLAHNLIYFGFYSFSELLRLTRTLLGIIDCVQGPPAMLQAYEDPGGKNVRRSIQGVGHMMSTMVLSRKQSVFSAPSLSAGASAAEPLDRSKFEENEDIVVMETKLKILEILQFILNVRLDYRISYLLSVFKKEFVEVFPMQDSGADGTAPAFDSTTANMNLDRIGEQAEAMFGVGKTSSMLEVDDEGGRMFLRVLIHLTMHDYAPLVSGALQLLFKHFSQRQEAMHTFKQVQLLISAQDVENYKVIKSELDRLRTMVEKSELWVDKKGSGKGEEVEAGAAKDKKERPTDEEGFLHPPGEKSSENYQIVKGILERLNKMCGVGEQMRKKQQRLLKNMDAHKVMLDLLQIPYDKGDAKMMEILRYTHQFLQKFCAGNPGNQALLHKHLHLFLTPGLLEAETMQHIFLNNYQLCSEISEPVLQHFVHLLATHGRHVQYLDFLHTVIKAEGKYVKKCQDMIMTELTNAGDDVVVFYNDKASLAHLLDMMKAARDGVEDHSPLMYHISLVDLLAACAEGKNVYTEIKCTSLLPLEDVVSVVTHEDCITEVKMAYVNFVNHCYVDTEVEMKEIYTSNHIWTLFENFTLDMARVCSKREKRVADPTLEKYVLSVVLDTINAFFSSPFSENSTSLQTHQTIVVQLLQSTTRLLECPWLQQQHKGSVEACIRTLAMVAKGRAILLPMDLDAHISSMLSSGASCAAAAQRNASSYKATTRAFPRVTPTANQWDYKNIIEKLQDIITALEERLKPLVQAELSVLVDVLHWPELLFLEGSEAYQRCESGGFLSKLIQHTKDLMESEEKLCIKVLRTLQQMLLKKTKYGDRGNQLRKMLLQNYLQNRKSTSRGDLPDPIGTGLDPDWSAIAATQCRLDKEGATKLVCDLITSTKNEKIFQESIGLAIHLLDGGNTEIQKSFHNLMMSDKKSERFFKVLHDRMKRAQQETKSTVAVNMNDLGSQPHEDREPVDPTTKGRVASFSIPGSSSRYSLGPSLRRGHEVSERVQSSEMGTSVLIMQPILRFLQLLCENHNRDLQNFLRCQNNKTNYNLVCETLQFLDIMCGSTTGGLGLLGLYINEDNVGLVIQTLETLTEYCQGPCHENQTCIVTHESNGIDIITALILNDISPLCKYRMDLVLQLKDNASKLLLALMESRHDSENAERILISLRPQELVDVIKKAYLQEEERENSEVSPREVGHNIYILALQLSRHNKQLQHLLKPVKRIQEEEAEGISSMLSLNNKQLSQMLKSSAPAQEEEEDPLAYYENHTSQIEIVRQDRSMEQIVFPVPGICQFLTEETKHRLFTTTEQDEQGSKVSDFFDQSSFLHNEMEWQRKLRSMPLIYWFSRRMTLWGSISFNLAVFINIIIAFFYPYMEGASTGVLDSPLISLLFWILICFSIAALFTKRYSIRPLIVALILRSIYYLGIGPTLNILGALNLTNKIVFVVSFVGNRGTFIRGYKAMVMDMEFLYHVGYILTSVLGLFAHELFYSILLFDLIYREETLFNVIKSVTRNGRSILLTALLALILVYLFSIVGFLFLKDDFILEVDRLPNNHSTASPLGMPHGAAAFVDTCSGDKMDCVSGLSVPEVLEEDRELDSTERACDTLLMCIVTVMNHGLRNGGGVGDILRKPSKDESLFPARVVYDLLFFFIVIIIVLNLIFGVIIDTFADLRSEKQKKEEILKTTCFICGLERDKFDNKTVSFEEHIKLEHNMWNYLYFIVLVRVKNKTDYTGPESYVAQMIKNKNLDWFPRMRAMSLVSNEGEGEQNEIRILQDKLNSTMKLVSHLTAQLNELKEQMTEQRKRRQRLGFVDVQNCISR
UniProt P01344, whole entry, looked up: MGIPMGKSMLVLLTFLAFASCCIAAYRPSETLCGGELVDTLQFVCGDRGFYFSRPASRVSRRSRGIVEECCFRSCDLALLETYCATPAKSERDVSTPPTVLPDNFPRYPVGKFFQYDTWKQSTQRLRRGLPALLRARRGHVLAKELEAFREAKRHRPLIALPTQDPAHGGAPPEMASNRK
IGKV3D-11, A0A0A0MRZ8, UniProt A0A0A0MRZ8, whole entry, looked up: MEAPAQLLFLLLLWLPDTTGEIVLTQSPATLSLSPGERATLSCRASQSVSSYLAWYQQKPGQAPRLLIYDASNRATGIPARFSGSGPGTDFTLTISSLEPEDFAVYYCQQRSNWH
UniProt Q13352: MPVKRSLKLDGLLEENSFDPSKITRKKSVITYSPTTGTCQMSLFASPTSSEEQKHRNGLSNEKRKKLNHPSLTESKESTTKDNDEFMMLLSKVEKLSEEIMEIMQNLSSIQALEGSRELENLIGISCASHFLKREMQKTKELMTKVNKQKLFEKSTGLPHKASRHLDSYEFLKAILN
UniProt P17181: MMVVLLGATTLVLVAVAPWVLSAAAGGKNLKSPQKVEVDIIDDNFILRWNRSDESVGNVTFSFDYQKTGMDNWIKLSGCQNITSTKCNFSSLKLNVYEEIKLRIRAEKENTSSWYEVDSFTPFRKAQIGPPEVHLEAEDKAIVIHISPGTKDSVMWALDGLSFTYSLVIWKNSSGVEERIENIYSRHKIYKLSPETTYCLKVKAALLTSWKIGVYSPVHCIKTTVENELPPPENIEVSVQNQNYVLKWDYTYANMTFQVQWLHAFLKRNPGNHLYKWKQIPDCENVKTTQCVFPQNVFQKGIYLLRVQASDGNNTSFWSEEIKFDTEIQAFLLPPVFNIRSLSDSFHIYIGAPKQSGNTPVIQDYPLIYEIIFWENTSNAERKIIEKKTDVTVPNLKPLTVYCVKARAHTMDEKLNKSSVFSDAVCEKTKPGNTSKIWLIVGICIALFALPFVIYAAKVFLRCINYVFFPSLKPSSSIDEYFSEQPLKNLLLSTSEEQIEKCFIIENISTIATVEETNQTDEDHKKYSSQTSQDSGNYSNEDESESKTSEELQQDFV
UniProt Q8N6C5: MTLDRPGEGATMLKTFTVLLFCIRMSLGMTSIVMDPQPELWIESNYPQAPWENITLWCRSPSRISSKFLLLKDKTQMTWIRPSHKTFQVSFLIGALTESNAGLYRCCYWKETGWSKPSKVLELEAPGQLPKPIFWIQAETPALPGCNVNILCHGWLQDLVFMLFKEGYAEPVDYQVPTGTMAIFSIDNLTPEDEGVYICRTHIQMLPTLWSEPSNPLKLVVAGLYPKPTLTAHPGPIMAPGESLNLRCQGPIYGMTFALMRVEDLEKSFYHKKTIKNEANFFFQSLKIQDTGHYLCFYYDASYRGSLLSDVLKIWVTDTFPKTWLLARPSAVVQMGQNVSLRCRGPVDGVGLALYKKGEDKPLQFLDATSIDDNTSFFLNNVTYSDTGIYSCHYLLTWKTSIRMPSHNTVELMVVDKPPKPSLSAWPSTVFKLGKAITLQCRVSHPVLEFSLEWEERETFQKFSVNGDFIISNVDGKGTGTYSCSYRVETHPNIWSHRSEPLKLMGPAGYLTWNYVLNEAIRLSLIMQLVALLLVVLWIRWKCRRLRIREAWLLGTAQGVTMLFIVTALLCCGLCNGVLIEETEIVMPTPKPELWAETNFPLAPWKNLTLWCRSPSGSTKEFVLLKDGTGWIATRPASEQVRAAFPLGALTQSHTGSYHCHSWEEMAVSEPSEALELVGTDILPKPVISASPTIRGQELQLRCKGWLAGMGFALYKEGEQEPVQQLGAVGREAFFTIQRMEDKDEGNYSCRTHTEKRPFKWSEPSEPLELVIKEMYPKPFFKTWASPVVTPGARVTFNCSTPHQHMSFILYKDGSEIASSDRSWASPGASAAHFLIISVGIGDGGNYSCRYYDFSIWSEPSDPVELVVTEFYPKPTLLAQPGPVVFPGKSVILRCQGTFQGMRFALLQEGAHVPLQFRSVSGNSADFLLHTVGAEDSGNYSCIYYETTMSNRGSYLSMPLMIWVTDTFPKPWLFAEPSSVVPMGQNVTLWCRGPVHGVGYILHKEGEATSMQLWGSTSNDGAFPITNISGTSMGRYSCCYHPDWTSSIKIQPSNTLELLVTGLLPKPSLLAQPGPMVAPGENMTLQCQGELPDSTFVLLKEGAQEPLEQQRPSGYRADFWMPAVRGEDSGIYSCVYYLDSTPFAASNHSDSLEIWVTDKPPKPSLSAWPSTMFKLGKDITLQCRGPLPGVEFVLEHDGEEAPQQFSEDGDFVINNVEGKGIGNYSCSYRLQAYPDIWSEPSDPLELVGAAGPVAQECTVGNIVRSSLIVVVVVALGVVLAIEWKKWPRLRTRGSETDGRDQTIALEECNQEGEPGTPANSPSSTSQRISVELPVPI
UniProt Q5VWK5: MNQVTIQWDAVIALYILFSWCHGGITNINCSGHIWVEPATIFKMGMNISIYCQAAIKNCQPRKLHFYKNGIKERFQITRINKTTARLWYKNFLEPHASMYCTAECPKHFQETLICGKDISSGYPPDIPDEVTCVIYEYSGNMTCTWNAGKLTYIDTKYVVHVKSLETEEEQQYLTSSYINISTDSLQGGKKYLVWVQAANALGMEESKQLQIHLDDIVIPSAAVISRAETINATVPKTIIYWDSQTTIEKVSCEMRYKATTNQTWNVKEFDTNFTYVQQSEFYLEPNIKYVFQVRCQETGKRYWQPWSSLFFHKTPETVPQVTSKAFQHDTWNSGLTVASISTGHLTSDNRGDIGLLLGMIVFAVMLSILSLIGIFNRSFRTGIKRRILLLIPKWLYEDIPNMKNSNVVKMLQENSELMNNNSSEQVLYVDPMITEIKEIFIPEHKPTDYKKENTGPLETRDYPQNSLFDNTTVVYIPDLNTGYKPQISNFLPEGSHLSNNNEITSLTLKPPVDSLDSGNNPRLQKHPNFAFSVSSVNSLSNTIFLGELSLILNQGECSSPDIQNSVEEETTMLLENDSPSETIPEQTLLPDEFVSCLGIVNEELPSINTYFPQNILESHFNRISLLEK

What was measured:
Assay in all cases: log2 fold change, soluble protein after heating vs DMSO (PISA); higher = thermal stabilisation; K562 cells, 10 uM, 30 min; active = over 0.2 and 3.5 SD of the protein, either way, in both replicates (recomputed)
[1] = compound: C/C(=N\NC(=O)C1=CC(=CC=C1)S(=O)(=O)N2CCOCC2)/C3=C(C=CC(=C3)Cl)O
Procedure, shortened: (§1)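 K562 cells at 2×10^6 cells/mL were exposed to 10 μM compound for 30 min, then aliquots were heated for 3 min across 48°C-58°C, pooled, and extracted in PBS containing 0.5% NP-40 at 4°C. The supernatant after 21,000xg for 90 min was taken as soluble protein and measured by TMTpro 16plex LC-MS/MS with channel sums equalised. Thermal stability is reported relative to control samples, with values from duplicates. Fold changes are given on a log2 scale.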

[2] = compound: C1=CC2=C(C=CC(=C2)/C=C\3/C(=O)NC(=NCC4=CC=CS4)S3)N=C1
Procedure, shortened: as §1

[3] = compound: C1=CC=C(C=C1)C2=NC(=C(N2)C3=CC=NC=C3)C4=CC(=C(C=C4)Cl)O
Procedure, shortened: as §1

[4] = compound: C1=CC=C2C(=C1)C3=NNC4=CC=CC(=C43)C2=O
Procedure, shortened: as §1

[5] = compound: CC(=O)c1cnc2ccc(-c3cc(Cl)c(O)c(Cl)c3)nc2c1N[C@H]1CC[C@H](CN(C)C)CC1
Procedure, shortened: as §1

ralimetinib = compound: CC(C)(C)Cn1c(N)nc2ccc(-c3[nH]c(C(C)(C)C)nc3-c3ccc(F)cc3)nc21 [ralimetinib]
Procedure, shortened: as §1

[6] = compound: CC(C)C[C@@H](C=O)NC(=O)[C@H](CC(C)C)NC(=O)[C@H](CC(C)C)NC(=O)OCc1ccccc1
Procedure, shortened: as §1

[7] = compound: C1=CC2=NC=CN=C2C=C1/C=C/3\C(=O)NC(=O)S3
Procedure, shortened: as §1

IRAK-1-4 Inhibitor I = compound: C1COCCN1CCN2C3=CC=CC=C3N=C2NC(=O)C4=CC(=CC=C4)[N+](=O)[O-] [IRAK-1-4 Inhibitor I]
Procedure, shortened: as §1

ibrutinib = compound: C=CC(=O)N1CCC[C@@H](n2nc(-c3ccc(Oc4ccccc4)cc3)c3c(N)ncnc32)C1 [ibrutinib]
Procedure, shortened: as §1

pinometostat = compound: CC(C)N(C[C@H]1O[C@@H](n2cnc3c(N)ncnc32)[C@H](O)[C@@H]1O)[C@H]1C[C@@H](CCc2nc3cc(C(C)(C)C)ccc3[nH]2)C1 [pinometostat]
Procedure, shortened: as §1

[8] = compound: CC1=C(C(CC(=O)N1)C2=CC=C(C=C2)C(F)(F)F)C(=O)NC3=C(C=C4C(=C3)C=NN4)F
Procedure, shortened: as §1

erlotinib = compound: C#Cc1cccc(Nc2ncnc3cc(OCCOC)c(OCCOC)cc23)c1 [erlotinib]
Procedure, shortened: as §1

[9] = compound: C1=CC(=CC=C1C2=NC3=C(N2)C=C(C=C3)C(=O)N)OC4=CC=C(C=C4)Cl
Procedure, shortened: as §1

[10] = compound: CC(C)C1=C2N=C(C=C(N2N=C1)NCC3=CC=CC=C3)NCCCCCCN
Procedure, shortened: as §1

[11] = compound: C1CCN(C1)C(=O)NC2=CC=CC(=C2)NC3=NC=C(C(=N3)NCCC4=CN=CN4)Br
Procedure, shortened: as §1

[12] = compound: C1CN(CCC1(CC2=CC=C(C=C2)Cl)N)C3=NC=NC4=C3C=CN4
Procedure, shortened: as §1

[13] = compound: CC1=C(C2=C(C=C1)C(=O)C3=CC=CC=C3N2CCCN)C
Procedure, shortened: as §1

[14] = compound: C1=CC(=C(C=C1Cl)C2=NC3=NC=CN=C3C(=N2)NC4=CC=NC=C4)F
Procedure, shortened: as §1

[15] = compound: CC(C)(O)CC(=O)NCCn1ccc2ncnc(Nc3ccc(Oc4cccc(C(F)(F)F)c4)c(Cl)c3)c21
Procedure, shortened: as §1

Measured: log2 fold change

IGFBP6 (UniProt P24592)
inactive: [1] -0.215 | [2] 0.057 | [3] 0.131 | [4] -0.19 | [5] -0.02 | ralimetinib -0.049 | [6] 0.097

ISL2 (UniProt Q96A47)
inactive: [1] 0.035 | [2] -0.01 | [7] -0.137 | [4] -0.1 | IRAK-1-4 Inhibitor I -0.295 | ibrutinib 0.074 | [5] -0.14 | pinometostat -0.266

IQSEC2 (UniProt Q5JU85)
inactive: [8] 0.031

IPMK (UniProt Q8NFU5)
inactive: [8] -0.403

IFT20 isoform 2 (UniProt Q8IY31)
inactive: erlotinib 0.024 | [9] 0.027 | [3] 0.029 | ralimetinib -0.057 | [10] -0.056 | [6] -0.247 | [8] 0.172

INTS12 (UniProt Q96CB8)
inactive: [11] -0.058 | [12] -0.229 | [13] 0.396

IMPA1 (UniProt E5RIP7)
inactive: [7] 0.15 | ibrutinib 0.126

IL2RG (UniProt P31785)
inactive: [14] 0.014 | [11] -0.051 | [12] 0.14 | [15] -0.076 | [8] -0.156 | [13] -0.068

IMP4 (UniProt Q96G21)
inactive: [1] -0.25 | [2] -0.015 | [3] -0.006 | [4] -0.139 | [5] -0.006 | ralimetinib 0.084 | [6] 0.155

IPP (UniProt Q9Y573)
inactive: [1] 0.091 | [2] 0.083 | [7] -0.17 | [4] 0.139 | ibrutinib 0.041 | [5] -0.084

ITPR3 (UniProt Q14573)
inactive: IRAK-1-4 Inhibitor I -0.416 | pinometostat 0.383

IKZF1 (UniProt R9R4D9)
inactive: [11] -0.055 | [12] -0.13 | IRAK-1-4 Inhibitor I -0.1 | pinometostat -0.103 | [13] 0.385

INF2 (UniProt Q27J81)
inactive: [1] -0.052 | [14] -0.069 | [2] -0.019 | [7] 0.001 | [3] 0.022 | [4] 0.045 | IRAK-1-4 Inhibitor I 0.12 | ibrutinib -0.007 | [5] -0.077 | ralimetinib 0.044 | [15] -0.003 | [6] 0.072 | pinometostat 0.116 | [8] 0.021

IGF2 isoform 3 (UniProt P01344)
inactive: erlotinib -0.098 | [9] 0.028 | IRAK-1-4 Inhibitor I 0.066 | [10] -0.104 | pinometostat -0.107

IGLC3 (UniProt P0DOY3)
inactive: [8] -0.3

IGLL5 (UniProt B9A064)
inactive: [7] -0.068 | [11] -0.058 | [12] -0.222 | IRAK-1-4 Inhibitor I -0.106 | ibrutinib 0.175 | pinometostat -0.104 | [8] 0.177 | [13] 0.371

IGKV3D-11, A0A0A0MRZ8
inactive: [8] -0.001

INIP (UniProt Q9NRY2)
inactive: [14] 0.269 | [15] 0.178 | [8] 0.081

IGFBP3 isoform 2 (UniProt P17936)
inactive: [1] -0.18 | [14] -0.094 | [2] 0.049 | [4] -0.172 | [11] 0.032 | [12] -0.057 | IRAK-1-4 Inhibitor I 0.115 | [5] 0.097 | [15] 0.196 | pinometostat -0.004 | [13] -0.095

INCENP (UniProt Q9NQS7)
inactive: [3] -0.081 | IRAK-1-4 Inhibitor I -0.447 | ralimetinib 0.171 | [6] 0.02 | pinometostat -0.108

ITGB3BP isoform 5 (UniProt Q13352)
inactive: erlotinib -0.221 | [9] 0.018 | [3] -0.087 | ralimetinib 0.02 | [10] 0.11 | [6] 0.036 | [8] 0.262

ILF3 (UniProt Q12906)
inactive: [14] -0.083 | [7] 0.128 | IRAK-1-4 Inhibitor I -0.058 | ibrutinib 0.036 | [15] 0.191 | pinometostat 0.029

IFNAR1 (UniProt P17181)
inactive: [14] -0.039 | [7] -0.124 | [3] -0.038 | [11] 0.013 | [12] 0.009 | IRAK-1-4 Inhibitor I 0.083 | ibrutinib -0.303 | ralimetinib -0.013 | [15] 0.027 | [6] -0.012 | pinometostat -0.097 | [8] -0.019 | [13] 0.005

ING1 (UniProt Q9UK53)
inactive: [1] 0.084 | [2] -0.012 | [7] -0.06 | [4] 0.074 | [11] -0.043 | [12] 0.096 | IRAK-1-4 Inhibitor I 0.462 | ibrutinib 0.025 | [5] 0.053 | pinometostat -0.052 | [13] -0.003

IGSF1 isoform 4 (UniProt Q8N6C5)
inactive: [1] 0.188 | [2] 0.421 | [4] 0.041 | [5] -0.164

IL1RAP isoform 5 (UniProt Q9NPH3)
inactive: [1] -0.061 | [14] 0.278 | [2] 0.359 | [7] -0.102 | [3] -0.325 | [4] 0.152 | [11] 0.165 | [12] -0.115 | ibrutinib 0.049 | [5] -0.046 | ralimetinib -0.1 | [15] 0 | [6] 0.093 | [13] -0.197

IL23R (UniProt Q5VWK5)
inactive: [1] -0.165 | [2] 0.385 | [7] -0.139 | [4] -0.051 | [11] 0.226 | [12] -0.139 | ibrutinib -0.243 | [5] -0.172 | [13] 0.19

IGHA2 (UniProt P01877)
inactive: [8] -0.355

IDUA (UniProt P35475)
inactive: [14] -0.137 | [15] 0.075
